# Publication PMC8294762
# Chains of the proteins cited; added tags and fusions are not shown.
# UniProt P56959: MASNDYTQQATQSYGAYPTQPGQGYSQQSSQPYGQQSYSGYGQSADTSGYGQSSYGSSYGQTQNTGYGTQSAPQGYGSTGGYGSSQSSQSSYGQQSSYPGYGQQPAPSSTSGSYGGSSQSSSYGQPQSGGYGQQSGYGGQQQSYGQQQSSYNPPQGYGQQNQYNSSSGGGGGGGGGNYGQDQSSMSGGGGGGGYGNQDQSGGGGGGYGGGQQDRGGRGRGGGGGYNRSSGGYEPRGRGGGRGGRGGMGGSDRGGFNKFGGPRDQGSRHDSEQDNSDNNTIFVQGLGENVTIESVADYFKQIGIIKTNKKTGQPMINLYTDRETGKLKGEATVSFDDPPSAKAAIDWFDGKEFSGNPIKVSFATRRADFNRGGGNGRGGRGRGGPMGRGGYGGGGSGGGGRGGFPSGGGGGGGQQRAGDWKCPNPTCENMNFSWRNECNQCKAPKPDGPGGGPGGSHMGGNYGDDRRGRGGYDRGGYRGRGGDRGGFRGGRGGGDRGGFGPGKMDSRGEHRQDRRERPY
# UniProt P97801: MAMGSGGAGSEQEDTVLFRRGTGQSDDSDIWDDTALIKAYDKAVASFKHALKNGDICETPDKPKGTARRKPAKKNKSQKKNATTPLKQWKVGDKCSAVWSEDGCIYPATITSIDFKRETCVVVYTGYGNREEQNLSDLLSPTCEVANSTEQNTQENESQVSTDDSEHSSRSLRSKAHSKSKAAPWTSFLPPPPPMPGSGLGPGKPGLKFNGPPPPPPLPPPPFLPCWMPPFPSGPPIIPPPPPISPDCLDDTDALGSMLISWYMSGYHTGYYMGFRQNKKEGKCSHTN
# No constants are given. Whether binding was seen depends on the method and setting. In cells and extracts the contact can be indirect. Some entries that bind do so weakly or less than the wild type.
# Biological target: wild-type FUS (FUsed in Sarcoma), mouse, endogenous (mouse (endogenous in embryonic brain)) (UniProt P56959)
# Assay: co-IP; E12.5-14.5 mouse brains homogenised in 20 mM HEPES pH 7.4, 150 mM NaCl, 10% glycerol; 1 mg lysate, 2 μg antibody or IgG control overnight, Protein A Sepharose; which protein was precipitated is not told
substance,measurement,value
"Survival Motor Neuron (SMN), mouse, endogenous (from UniProt P97801 1-288)",binding,binds
